Counter-ions that a name gives are not always drawn. Some entries share one result that the patent states for a list of compounds. For some assays here: At least one structure is not confirmed: it was looked up by name or label, or the drawing left a doubt.
Columns and labels:
[1] = system: Ishikawa human endometrial tumor cells; experiment: Ishikawa Cell Proliferation Assay, agonist mode (alkaline phosphatase readout); type: cell-based; conditions: compound alone
[2] = system: immature (3 week old) female rats; experiment: 3-Day Rat Uterus Antagonist Assay; type: in vivo; conditions: 1.0 mg/kg oral, 3 days, with E2 0.1 mg/kg

Structure (SMILES) | stimulation in the agonist mode compared with tamoxifen [1] | inhibition of the estrogen-induced response (uterine weight/body weight ratio) [2]
CS(=O)(=O)c1ccc(-c2ccc3cc(O)ccc3c2C(=O)c2ccc(OCCN3CCCCC3)cc2)cc1.Cl [Example 75, [6-Hydroxy-2-(4-methanesulfonyl-phenyl)-naphthalen-1-yl]-[4-(2-piperidin-1-yl-ethoxy)-phenyl]-methanone Hydrochloride] | less stimulatory than tamoxifen | –
CS(=O)(=O)c1ccc(-c2ccc3cc(O)ccc3c2Oc2ccc(OCCN3CCCCC3)cc2)cc1O.O=C(O)C(F)(F)F [Example 27, 6-(3-Hydroxy-4-methanesulfonyl-phenyl)-5-[4-(2-piperidin-1-yl-ethoxy)-phenoxy]-naphthalen-2-ol Trifluoroacetate] | less stimulatory than tamoxifen | inhibit the estrogen-induced response
Cl.O=S1(=O)CCc2cc(-c3ccc4cc(O)ccc4c3Oc3ccc(OCCN4CCCCC4)cc3)ccc21 [Example 23, 6-(1,1-Dioxo-2,3-dihydro-1H-1λ^6-benzo[b]thiophen-5-yl)-5-[4-(2-piperidin-1-yl-ethoxy)-phenoxy]-naphthalen-2-ol Hydrochloride] | less stimulatory than tamoxifen | inhibit the estrogen-induced response
CCS(=O)(=O)c1ccc(-c2sc3cc(O)ccc3c2Oc2ccc(OCCN3CCCCC3)cc2)cc1.Cl [Example 89, 2-(4-Ethanesulfonyl-phenyl)-3-[4-(2-piperidin-1-yl-ethoxy)-phenoxy]-benzo[b]thiophen-6-ol Hydrochloride] | less stimulatory than tamoxifen | inhibit the estrogen-induced response
CC(C)C(=O)Oc1ccc2c(Oc3ccc(OCCN4CCCCC4)cc3)c(-c3ccc(S(C)(=O)=O)cc3)ccc2c1.Cl [Example 71, Isobutyric acid 6-(4-methanesulfonyl-phenyl)-5-[4-(2-piperidin-1-yl-ethoxy)-phenoxy]-naphthalen-2-yl ester Hydrochloride] | less stimulatory than tamoxifen | –
CSc1cc(-c2ccc3cc(O)ccc3c2Oc2ccc(OCCN3CCCCC3)cc2)ccc1S(C)(=O)=O.Cl [Example 101, 6-(4-Methanesulfonyl-3-methylsulfanyl-phenyl)-5-[4-(2-piperidin-1-yl-ethoxy)-phenoxy]-naphthalen-2-ol Hydrochloride] | less stimulatory than tamoxifen | inhibit the estrogen-induced response
CC(C)(C)NS(=O)(=O)c1ccc(-c2ccc3cc(O)ccc3c2Oc2ccc(OCCN3CCCCC3)cc2)cc1.Cl [Example 63, N-tert-Butyl-4-{6-hydroxy-1-[4-(2-piperidin-1-yl-ethoxy)-phenoxy]-naphthalen-2-yl}-benzenesulfonamide Hydrochloride] | less stimulatory than tamoxifen | –
CCS(=O)(=O)c1cc(-c2ccc3cc(O)ccc3c2Oc2ccc(OCCN3CCCCC3)cc2)cc(S(=O)(=O)CC)c1.Cl [Example 56, 6-(3,5-Bis-ethanesulfonyl-phenyl)-5-[4-(2-piperidin-1-yl-ethoxy)-phenoxy]-naphthalen-2-ol Hydrochloride] | less stimulatory than tamoxifen | inhibit the estrogen-induced response
CC(C)COC(=O)Oc1ccc2c(Oc3ccc(OCCN4CCCCC4)cc3)c(-c3ccc(S(C)(=O)=O)cc3)ccc2c1.Cl [Example 10, Carbonic acid isobutyl ester 6-(4-methanesulfonyl-phenyl)-5-[4-(2-piperidin-1-yl-ethoxy)-phenoxy]-naphthalen-2-yl ester Hydrochloride] | less stimulatory than tamoxifen | –
CS(=O)(=O)c1ccc(-c2ccc3cc(O)ccc3c2Cc2ccc(OCCN3CCCCC3)cc2)cc1.Cl [Example 78, 6-(4-Methanesulfonyl-phenyl)-5-[4-(2-piperidin-1-yl-ethoxy)-benzyl]-naphthalen-2-ol Hydrochloride] | less stimulatory than tamoxifen | inhibit the estrogen-induced response
CS(=O)(=O)c1ccc(-c2sc3cc(O)ccc3c2Oc2ccc(OCCN3CCCCC3)cc2)cc1F.O=C(O)C(F)(F)F [Example 94, 2-(3-Fluoro-4-methanesulfonyl-phenyl)-3-[4-(2-piperidin-1-yl-ethoxy)-phenoxy]-benzo[b]thiophen-6-ol Trifluoroacetate] | less stimulatory than tamoxifen | –
COc1cc(-c2ccc3cc(O)ccc3c2Oc2ccc(OCCN3CCCCC3)cc2)ccc1S(C)(=O)=O.Cl [Example 82, 6-(4-Methanesulfonyl-3-methoxy-phenyl)-5-[4-(2-piperidin-1-yl-ethoxy)-phenoxy]-naphthalen-2-ol Hydrochloride] | less stimulatory than tamoxifen | –
Cl.O=S(=O)(CC(F)(F)F)c1ccc(-c2ccc3cc(O)ccc3c2Oc2ccc(OCCN3CCCCC3)cc2)cc1 [Example 39, 5-[4-(2-Piperidin-1-yl-ethoxy)-phenoxy]-6-[4-(2,2,2-trifluoro-ethanesulfonyl)-phenyl]-naphthalen-2-ol Hydrochloride] | less stimulatory than tamoxifen | inhibit the estrogen-induced response
CS(=O)(=O)c1ccc(-c2ccc3cc(OC(=O)c4ccc(F)cc4)ccc3c2Oc2ccc(OCCN3CCCCC3)cc2)cc1.Cl [Example 8, 4-Fluoro-benzoic acid 6-(4-methanesulfonyl-phenyl)-5-[4-(2-piperidin-1-yl-ethoxy)-phenoxy]-naphthalen-2-yl ester Hydrochloride] | less stimulatory than tamoxifen | –
CNS(=O)(=O)c1ccc(-c2ccc3cc(O)ccc3c2Oc2ccc(OCCN3CCCCC3)cc2)cc1.Cl [Example 70, 4-{6-Hydroxy-1-[4-(2-piperidin-1-yl-ethoxy)-phenoxy]-naphthalen-2-yl}-N-methyl-benzenesulfonamide Hydrochloride] | less stimulatory than tamoxifen | inhibit the estrogen-induced response
CC(C)(C)COS(=O)(=O)c1ccc(-c2ccc3cc(O)ccc3c2Oc2ccc(OCCN3CCCCC3)cc2)cc1.Cl [Example 67, 4-{6-Hydroxy-1-[4-(2-piperidin-1-yl-ethoxy)-phenoxy]-naphthalen-2-yl}-benzenesulfonic acid 2,2-dimethyl-propyl ester Hydrochloride] | less stimulatory than tamoxifen | –
CCCS(=O)(=O)c1ccc(-c2ccc3cc(O)ccc3c2Oc2ccc(OCCN3CCCCC3)cc2)cc1.Cl [Example 86, 5-[4-(2-Piperidin-1-yl-ethoxy)-phenoxy]-6-[4-(propane-1-sulfonyl)-phenyl]-naphthalen-2-ol Hydrochloride] | less stimulatory than tamoxifen | inhibit the estrogen-induced response
Cl.O=S1(=O)Cc2ccc(-c3ccc4cc(O)ccc4c3Oc3ccc(OCCN4CCCCC4)cc3)cc2C1 [Example 25, 6-(2,2-Dioxo-2,3-dihydro-1H-2λ^6-benzo[c]thiophen-5-yl)-5-[4-(2-piperidin-1-ylethoxy)-phenoxy]-naphthalen-2-ol Hydrochloride] | less stimulatory than tamoxifen | –
CS(=O)(=O)c1ccc(-c2ccc3cc(O)ccc3c2Oc2ccc(OCCN3CCCCC3)cc2)cc1F.Cl [Example 18, 6-(3-Fluoro-4-methanesulfonyl-phenyl)-5-[4-(2-piperidin-1-yl-ethoxy)-phenoxy]-naphthalen-2-ol Hydrochloride] | less stimulatory than tamoxifen | inhibit the estrogen-induced response
O=C(O)C(F)(F)F.O=S(=O)(c1ccc(-c2sc3cc(O)ccc3c2Oc2ccc(OCCN3CCCCC3)cc2)cc1)C(F)(F)F [Example 97, 3-[4-(2-Piperidin-1-yl-ethoxy)-phenoxy]-2-(4-trifluoromethanesulfonyl-phenyl)-benzo[b]thiophen-6-ol Trifluoroacetate] | less stimulatory than tamoxifen | –
CS(=O)(=O)c1c(F)cc(-c2ccc3cc(O)ccc3c2Oc2ccc(OCCN3CCCCC3)cc2)cc1F.Cl [Example 80, 6-(3,5-Difluoro-4-methanesulfonyl-phenyl)-5-[4-(2-piperidin-1-yl-ethoxy)-phenoxy]-naphthalen-2-ol Hydrochloride] | less stimulatory than tamoxifen | –
CS(=O)(=O)c1ccc(C2=C(Oc3ccc(OCCN4CCCCC4)cc3)c3ccc(O)cc3CC2)cc1 [Example 105, 6-(4-Methanesulfonyl-phenyl)-5-[4-(2-piperidin-1-yl-ethoxy)-phenoxy]-7,8-dihydro-naphthalen-2-ol] | less stimulatory than tamoxifen | –
CS(=O)(=O)c1ccc(-c2ccc3cc(O)ccc3c2Oc2ccc(OCCN3CCCCC3)cc2)cc1S(C)(=O)=O [Example 36, 6-(3,4-Bis-methanesulfonyl-phenyl)-5-[4-(2-piperidin-1-yl-ethoxy)-phenoxy]-naphthalen-2-ol Hydrochloride] | less stimulatory than tamoxifen | –
Cc1cc(-c2ccc3cc(O)ccc3c2Oc2ccc(OCCN3CCCCC3)cc2)ccc1S(C)(=O)=O [Example 49, 6-(4-Methanesulfonyl-3-methyl-phenyl)-5-[4-(2-piperidin-1-yl-ethoxy)-phenoxy]-naphthalen-2-ol Hydrochloride] | less stimulatory than tamoxifen | –
CS(=O)(=O)c1cccc(-c2ccc3cc(O)ccc3c2Oc2ccc(OCCN3CCCCC3)cc2)c1.Cl [Example 16, 6-(3-Methanesulfonyl-phenyl)-5-[4-(2-piperidin-1-yl-ethoxy)-phenoxy]-naphthalen-2-ol Hydrochloride] | less stimulatory than tamoxifen | –

From patent publication US7585977B2, “Selective estrogen receptor modulators containing a phenylsulfonyl group” (Eli Lilly and Company, priority 2005, dated 2009)
